# Results published in the supplement of paper PMC10849652.
# Protein sequences, listed by entry. Tags and fused reporters are not part of them. Lines headed by an entry give the natural chain unless they say otherwise; changes in a name come on top.
# UniProt Q86VN1: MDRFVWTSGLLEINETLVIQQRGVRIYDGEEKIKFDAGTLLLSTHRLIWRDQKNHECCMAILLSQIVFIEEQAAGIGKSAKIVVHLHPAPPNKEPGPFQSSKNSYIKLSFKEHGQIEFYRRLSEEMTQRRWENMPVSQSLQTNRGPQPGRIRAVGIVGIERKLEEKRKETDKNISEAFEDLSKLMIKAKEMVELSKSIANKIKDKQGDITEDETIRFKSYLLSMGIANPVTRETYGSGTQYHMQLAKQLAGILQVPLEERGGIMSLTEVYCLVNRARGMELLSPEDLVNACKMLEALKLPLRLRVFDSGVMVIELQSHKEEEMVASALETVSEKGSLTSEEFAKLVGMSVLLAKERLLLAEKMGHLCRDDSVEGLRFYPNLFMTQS
# UniProt Q709C8: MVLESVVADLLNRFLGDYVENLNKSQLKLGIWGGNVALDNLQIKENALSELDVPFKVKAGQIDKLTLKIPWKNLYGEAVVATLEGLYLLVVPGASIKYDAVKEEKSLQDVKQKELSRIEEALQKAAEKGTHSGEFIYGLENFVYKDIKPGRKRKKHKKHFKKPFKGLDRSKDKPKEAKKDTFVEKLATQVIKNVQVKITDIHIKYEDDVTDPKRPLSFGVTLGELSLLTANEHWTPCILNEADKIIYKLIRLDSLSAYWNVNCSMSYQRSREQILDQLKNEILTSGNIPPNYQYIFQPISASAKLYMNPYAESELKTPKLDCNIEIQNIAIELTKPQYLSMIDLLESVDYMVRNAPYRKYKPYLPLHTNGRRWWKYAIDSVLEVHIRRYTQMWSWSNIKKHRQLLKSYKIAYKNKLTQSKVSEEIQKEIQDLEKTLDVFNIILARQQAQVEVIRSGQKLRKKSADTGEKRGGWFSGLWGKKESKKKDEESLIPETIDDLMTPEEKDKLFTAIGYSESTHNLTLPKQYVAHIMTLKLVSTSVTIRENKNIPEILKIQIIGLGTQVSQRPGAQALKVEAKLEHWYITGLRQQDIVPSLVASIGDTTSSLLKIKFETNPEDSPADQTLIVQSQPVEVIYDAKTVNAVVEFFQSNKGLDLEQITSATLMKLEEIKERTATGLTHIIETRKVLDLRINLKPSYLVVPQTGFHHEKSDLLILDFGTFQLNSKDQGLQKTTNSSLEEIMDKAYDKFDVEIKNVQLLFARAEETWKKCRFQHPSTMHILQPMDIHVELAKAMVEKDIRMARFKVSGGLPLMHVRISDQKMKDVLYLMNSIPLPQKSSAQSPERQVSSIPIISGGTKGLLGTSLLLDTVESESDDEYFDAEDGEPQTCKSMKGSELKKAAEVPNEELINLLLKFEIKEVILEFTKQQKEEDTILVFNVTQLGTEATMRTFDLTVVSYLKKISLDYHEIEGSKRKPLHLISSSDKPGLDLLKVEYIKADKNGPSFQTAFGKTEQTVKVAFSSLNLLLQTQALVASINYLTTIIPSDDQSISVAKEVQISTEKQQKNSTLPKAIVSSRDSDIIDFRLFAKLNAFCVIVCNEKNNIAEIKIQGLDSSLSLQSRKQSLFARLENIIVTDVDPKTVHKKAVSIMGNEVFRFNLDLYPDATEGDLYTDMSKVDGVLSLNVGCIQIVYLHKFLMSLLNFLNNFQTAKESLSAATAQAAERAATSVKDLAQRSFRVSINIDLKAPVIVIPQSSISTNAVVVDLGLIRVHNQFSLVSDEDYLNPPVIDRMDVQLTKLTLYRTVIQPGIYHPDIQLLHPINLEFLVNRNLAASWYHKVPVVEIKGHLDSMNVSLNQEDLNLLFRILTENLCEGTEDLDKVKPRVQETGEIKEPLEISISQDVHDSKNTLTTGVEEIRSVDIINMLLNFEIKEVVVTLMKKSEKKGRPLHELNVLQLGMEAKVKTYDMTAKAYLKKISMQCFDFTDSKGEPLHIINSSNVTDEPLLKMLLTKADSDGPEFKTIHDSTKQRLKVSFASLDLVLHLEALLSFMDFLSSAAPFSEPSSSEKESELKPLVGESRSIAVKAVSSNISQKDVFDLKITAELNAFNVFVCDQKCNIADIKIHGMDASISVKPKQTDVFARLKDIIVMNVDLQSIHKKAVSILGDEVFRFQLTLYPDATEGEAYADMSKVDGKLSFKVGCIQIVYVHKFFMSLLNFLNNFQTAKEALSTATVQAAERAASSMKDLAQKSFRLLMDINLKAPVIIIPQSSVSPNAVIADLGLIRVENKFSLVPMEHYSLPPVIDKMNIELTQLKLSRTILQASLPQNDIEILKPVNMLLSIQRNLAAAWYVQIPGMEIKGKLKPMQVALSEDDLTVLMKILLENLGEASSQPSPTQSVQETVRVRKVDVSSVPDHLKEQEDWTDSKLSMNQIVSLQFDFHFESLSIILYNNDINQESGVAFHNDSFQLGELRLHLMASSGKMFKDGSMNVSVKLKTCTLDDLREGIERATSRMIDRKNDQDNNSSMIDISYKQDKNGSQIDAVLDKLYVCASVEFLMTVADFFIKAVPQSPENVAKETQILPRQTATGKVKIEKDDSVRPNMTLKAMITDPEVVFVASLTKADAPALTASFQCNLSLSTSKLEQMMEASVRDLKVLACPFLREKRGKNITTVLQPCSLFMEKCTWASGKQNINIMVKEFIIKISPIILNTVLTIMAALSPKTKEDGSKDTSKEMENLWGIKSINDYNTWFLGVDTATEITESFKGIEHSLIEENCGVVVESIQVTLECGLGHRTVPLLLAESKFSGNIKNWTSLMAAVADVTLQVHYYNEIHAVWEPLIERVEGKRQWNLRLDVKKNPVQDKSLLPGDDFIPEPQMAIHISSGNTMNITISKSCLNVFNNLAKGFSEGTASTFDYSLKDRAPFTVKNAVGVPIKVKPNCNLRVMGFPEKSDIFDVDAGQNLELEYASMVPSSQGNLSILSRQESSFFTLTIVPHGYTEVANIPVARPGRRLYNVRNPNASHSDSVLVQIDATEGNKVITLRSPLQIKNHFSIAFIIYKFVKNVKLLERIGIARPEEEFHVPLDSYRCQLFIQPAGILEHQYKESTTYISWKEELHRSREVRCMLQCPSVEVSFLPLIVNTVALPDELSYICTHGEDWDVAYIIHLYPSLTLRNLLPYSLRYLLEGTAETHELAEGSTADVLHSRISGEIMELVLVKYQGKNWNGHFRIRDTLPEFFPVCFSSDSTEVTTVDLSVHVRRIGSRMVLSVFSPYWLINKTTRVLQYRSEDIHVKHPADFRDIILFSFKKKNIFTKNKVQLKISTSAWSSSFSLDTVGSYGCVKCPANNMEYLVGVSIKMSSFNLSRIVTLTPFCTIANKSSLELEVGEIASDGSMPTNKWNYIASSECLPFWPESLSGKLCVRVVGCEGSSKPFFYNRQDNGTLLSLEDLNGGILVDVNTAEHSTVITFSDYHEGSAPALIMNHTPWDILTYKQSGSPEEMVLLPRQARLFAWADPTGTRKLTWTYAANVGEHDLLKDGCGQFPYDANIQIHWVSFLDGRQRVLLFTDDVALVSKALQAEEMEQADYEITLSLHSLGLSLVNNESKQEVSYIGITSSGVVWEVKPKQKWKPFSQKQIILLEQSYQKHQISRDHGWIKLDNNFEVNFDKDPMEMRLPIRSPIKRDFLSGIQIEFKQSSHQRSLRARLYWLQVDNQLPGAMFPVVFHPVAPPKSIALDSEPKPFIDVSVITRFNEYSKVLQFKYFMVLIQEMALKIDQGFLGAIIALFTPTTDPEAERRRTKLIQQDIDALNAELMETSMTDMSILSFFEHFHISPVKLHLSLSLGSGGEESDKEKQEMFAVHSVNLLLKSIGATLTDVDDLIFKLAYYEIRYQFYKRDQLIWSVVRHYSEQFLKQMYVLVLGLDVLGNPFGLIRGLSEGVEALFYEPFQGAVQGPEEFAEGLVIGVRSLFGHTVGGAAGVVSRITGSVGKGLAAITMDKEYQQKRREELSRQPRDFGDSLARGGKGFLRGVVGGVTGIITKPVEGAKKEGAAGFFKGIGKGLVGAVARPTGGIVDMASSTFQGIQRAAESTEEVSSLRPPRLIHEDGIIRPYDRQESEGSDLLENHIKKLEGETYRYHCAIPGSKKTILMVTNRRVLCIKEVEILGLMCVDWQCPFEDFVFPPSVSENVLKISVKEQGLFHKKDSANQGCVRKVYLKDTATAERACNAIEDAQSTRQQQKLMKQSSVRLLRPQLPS
# UniProt Q9Y4E6, whole entry, looked up: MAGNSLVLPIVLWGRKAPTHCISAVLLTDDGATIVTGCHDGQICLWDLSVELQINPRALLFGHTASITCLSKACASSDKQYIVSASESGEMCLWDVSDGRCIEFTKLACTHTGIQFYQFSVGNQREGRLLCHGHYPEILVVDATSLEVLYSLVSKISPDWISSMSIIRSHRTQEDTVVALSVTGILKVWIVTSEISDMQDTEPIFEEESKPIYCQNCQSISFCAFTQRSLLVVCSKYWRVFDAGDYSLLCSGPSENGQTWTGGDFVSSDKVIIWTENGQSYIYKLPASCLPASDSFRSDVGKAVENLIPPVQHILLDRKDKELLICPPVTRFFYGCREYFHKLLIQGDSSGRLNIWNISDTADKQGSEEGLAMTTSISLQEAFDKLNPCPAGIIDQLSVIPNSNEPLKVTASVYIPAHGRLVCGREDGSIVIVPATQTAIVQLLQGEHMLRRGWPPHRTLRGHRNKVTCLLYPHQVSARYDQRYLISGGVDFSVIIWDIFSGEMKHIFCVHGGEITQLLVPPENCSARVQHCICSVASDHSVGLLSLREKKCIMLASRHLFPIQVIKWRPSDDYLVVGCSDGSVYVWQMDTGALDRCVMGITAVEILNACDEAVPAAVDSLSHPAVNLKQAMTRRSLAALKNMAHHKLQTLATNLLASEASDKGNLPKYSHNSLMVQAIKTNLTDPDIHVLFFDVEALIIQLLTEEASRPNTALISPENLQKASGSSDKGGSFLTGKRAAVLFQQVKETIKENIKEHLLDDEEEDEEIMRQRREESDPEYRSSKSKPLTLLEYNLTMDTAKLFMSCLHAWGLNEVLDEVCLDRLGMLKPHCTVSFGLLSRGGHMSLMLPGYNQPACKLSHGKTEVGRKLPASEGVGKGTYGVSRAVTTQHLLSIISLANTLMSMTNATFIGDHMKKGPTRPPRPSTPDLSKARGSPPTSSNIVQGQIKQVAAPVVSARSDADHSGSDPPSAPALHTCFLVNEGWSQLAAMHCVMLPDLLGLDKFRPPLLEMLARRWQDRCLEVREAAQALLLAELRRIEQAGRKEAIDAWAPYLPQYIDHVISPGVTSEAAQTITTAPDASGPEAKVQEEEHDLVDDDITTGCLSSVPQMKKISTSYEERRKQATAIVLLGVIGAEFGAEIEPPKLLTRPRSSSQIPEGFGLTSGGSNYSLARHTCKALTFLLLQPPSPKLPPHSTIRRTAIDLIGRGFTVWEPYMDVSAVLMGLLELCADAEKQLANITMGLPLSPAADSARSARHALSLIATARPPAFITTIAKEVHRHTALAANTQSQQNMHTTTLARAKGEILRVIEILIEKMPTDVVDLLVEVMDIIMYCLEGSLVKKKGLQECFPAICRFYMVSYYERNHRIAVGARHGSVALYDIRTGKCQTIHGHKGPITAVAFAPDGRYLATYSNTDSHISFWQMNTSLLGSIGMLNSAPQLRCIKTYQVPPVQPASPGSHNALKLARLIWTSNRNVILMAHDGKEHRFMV
# UniProt P23381: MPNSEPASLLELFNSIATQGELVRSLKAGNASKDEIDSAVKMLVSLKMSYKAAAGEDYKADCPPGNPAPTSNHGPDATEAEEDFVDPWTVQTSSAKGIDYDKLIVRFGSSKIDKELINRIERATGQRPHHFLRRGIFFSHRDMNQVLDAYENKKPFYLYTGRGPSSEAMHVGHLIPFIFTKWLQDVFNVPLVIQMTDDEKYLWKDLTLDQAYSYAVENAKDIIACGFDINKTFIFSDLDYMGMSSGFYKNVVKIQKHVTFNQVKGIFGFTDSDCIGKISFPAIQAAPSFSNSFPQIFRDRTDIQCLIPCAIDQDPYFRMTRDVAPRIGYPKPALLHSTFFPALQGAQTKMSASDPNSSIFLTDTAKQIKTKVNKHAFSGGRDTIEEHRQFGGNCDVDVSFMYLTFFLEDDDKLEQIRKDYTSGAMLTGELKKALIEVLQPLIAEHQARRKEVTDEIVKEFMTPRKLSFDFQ
# UniProt Q9Y6W5, whole entry, looked up: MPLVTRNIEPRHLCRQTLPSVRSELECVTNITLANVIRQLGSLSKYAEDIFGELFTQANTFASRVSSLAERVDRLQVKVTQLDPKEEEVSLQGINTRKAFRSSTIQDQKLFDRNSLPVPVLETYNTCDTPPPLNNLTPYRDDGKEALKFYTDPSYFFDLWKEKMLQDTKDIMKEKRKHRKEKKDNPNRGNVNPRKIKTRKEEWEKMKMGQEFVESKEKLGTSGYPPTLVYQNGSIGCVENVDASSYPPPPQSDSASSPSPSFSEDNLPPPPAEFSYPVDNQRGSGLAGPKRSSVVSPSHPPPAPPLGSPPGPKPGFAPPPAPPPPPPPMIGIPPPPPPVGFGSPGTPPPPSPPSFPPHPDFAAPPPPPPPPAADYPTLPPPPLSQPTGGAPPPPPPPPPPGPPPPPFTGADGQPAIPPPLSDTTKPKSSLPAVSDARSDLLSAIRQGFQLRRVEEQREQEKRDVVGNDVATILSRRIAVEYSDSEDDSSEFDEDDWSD
# This is one part of the list.
# Assays:
# Assay in all cases: log2 fold change, soluble protein after heating vs DMSO (PISA); higher = thermal stabilisation; K562 lysate, 10 uM; active = over 0.2 and 3.5 SD of the protein, either way, in both replicates (recomputed)
# nilotinib = compound: Cc1cn(-c2cc(NC(=O)c3ccc(C)c(Nc4nccc(-c5cccnc5)n4)c3)cc(C(F)(F)F)c2)cn1 [nilotinib]
# Outline: (§1)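 Pellets of K562 cells were dounce-homogenised in PBS pH 7.4 with 1 mM MgCl2, and the crude extract was held at 1 mg/mL protein for a 30 min treatment with 10 μM compound. Aliquots were heated for 3 min over 48°C-58°C and pooled before NP-40 was added to 0.5% at 4°C. The supernatant from 21,000xg for 90 min was quantified by TMTpro 16plex LC-MS/MS with channel sums equalised. Values are reported from duplicates as log-two fold change in thermal stability relative to solvent controls.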
# [1] = compound: Cc1nc(Nc2n[nH]c3c2CN(C(=O)N[C@H](CN(C)C)c2ccccc2)C3(C)C)c2sccc2n1
# Outline: as §1
# dasatinib = compound: Cc1nc(Nc2ncc(C(=O)Nc3c(C)cccc3Cl)s2)cc(N2CCN(CCO)CC2)n1 [dasatinib]
# Outline: as §1
# [2] = compound: Cc1ncc(-c2ccnc(Nc3ccc(S(C)(=O)=O)cc3)n2)n1C(C)C
# Outline: as §1
# [3] = compound: Cn1cc(-c2ccc3c(c2)CCN3C(=O)Cc2cccc(C(F)(F)F)c2)c2c(N)ncnc21
# Outline: as §1
# quisinostat = compound: Cn1cc(CNCC2CCN(c3ncc(C(=O)NO)cn3)CC2)c2ccccc21 [quisinostat]
# Outline: as §1
# tipifarnib = compound: Cn1cncc1[C@@](N)(c1ccc(Cl)cc1)c1ccc2c(c1)c(-c1cccc(Cl)c1)cc(=O)n2C [tipifarnib]
# Outline: as §1
# [4] = compound: NC(=O)Nc1cc(-c2cccc(F)c2)sc1C(=O)N[C@H]1CCCNC1
# Outline: as §1
# [5] = compound: NC(=O)c1cnc(N[C@@H]2CCCC[C@@H]2N)nc1Nc1cccc(-n2nccn2)c1
# Outline: as §1
# [6] = compound: NC1(c2ccc(-c3nc4ccn5c(=O)[nH]nc5c4cc3-c3ccccc3)cc2)CCC1
# Outline: as §1
# [7] = compound: NCC(=O)Nc1ccc(-n2nc(C(F)(F)F)cc2-c2ccc3c(ccc4ccccc43)c2)cc1
# Outline: as §1
# vorinostat = compound: O=C(CCCCCCC(=O)Nc1ccccc1)NO [vorinostat]
# Outline: as §1
# silmitasertib = compound: O=C(O)c1ccc2c(c1)nc(Nc1cccc(Cl)c1)c1ccncc12 [silmitasertib]
# Outline: as §1
# [8] = compound: O=C1NC(=O)C(c2cnc3ccccn23)=C1c1cn2c3c(cc(F)cc13)CN(C(=O)N1CCCCC1)CC2
# Outline: as §1
# entospletinib = compound: c1cn2cc(-c3ccc4cn[nH]c4c3)nc(Nc3ccc(N4CCOCC4)cc3)c2n1 [entospletinib]
# Outline: as §1
Target,log2 fold change (nilotinib),log2 fold change [1],log2 fold change (dasatinib),log2 fold change [2],log2 fold change [3],log2 fold change (quisinostat),log2 fold change (tipifarnib),log2 fold change [4],log2 fold change [5],log2 fold change [6],log2 fold change [7],log2 fold change (vorinostat),log2 fold change (silmitasertib),log2 fold change [8],log2 fold change (entospletinib)
VPS54 (UniProt Q9P1Q0),inactive: 0.013,inactive: -0.041,inactive: -0.112,inactive: 0.205,inactive: 0.146,active: -0.409,inactive: -0.111,inactive: 0.065,inactive: 0.089,inactive: -0.121,inactive: 0.112,inactive: -0.055,inactive: -0.001,inactive: 0.002,inactive: 0.007
VMA21 (UniProt Q3ZAQ7),inactive: -0.005,inactive: -0.1,inactive: 0.01,inactive: 0.085,inactive: -0.119,inactive: -0.199,inactive: 0.202,inactive: 0.086,inactive: 0.006,inactive: -0.077,inactive: 0.041,inactive: 0.096,inactive: 0,inactive: 0.042,inactive: -0.034
WDR70 (UniProt Q9NW82),inactive: 0.005,inactive: -0.008,inactive: 0.004,inactive: -0.027,inactive: 0.027,inactive: 0.013,inactive: -0.007,inactive: -0.045,inactive: -0.03,inactive: 0.034,inactive: 0.027,inactive: -0.014,inactive: 0.054,inactive: -0.029,inactive: 0.015
WDR24 (UniProt Q96S15),inactive: 0.124,inactive: -0.09,inactive: -0.072,inactive: 0.05,inactive: -0.022,inactive: -0.013,inactive: -0.096,inactive: 0.038,inactive: 0.04,inactive: -0.002,inactive: 0.041,inactive: -0.202,inactive: 0.134,inactive: 0.032,inactive: 0.022
VPS36 (UniProt Q86VN1),inactive: -0.042,inactive: 0.015,inactive: 0.002,inactive: 0,inactive: 0.004,inactive: -0.026,inactive: 0.052,inactive: 0.008,inactive: 0.012,inactive: -0.005,inactive: 0.007,inactive: -0.04,inactive: 0.026,inactive: -0.04,inactive: 0.004
WIPF1 isoform 3 (UniProt O43516),inactive: 0.008,inactive: 0.008,inactive: -0.017,inactive: 0.003,inactive: -0.09,inactive: -0.078,inactive: -0.01,inactive: 0.036,inactive: 0.066,inactive: 0.009,inactive: 0.011,inactive: 0.021,inactive: -0.038,inactive: 0.01,inactive: -0.023
VPS52 (UniProt Q8N1B4),inactive: 0.052,inactive: -0.054,inactive: -0.033,inactive: 0.005,inactive: 0.062,inactive: 0.034,inactive: -0.03,inactive: 0.026,inactive: 0.017,inactive: 0.037,inactive: -0.054,inactive: -0.117,inactive: 0.07,inactive: 0.036,inactive: -0.002
VPS13C (UniProt Q709C8),inactive: 0.138,inactive: 0.043,inactive: -0.011,inactive: -0.069,inactive: -0.039,inactive: -0.034,inactive: -0.177,inactive: -0.009,inactive: -0.028,inactive: -0.05,inactive: 0.005,inactive: 0.062,inactive: -0.033,inactive: 0.027,inactive: -0.051
WDR45 isoform 2 (UniProt Q9Y484),inactive: 0.04,inactive: -0.01,inactive: -0.085,inactive: -0.027,inactive: 0.049,inactive: 0.06,inactive: 0.009,inactive: 0.013,inactive: -0.042,inactive: -0.028,inactive: 0.018,inactive: 0.025,inactive: 0.016,inactive: 0,inactive: 0.009
WDR55 (UniProt Q9H6Y2),inactive: -0.02,inactive: 0.013,inactive: -0.019,inactive: -0.005,inactive: -0.014,inactive: 0.044,inactive: 0.041,inactive: -0.025,inactive: 0.034,inactive: -0.039,inactive: 0.011,inactive: -0.078,inactive: 0.02,inactive: -0.009,inactive: 0.014
VPS35 (UniProt Q96QK1),inactive: 0.013,inactive: 0.004,inactive: -0.024,inactive: 0.025,inactive: -0.008,inactive: 0.002,inactive: 0.003,inactive: -0.008,inactive: 0.015,inactive: -0.022,inactive: -0.018,inactive: 0.015,inactive: -0.011,inactive: 0.002,inactive: 0
VPS41 (UniProt P49754),inactive: 0.034,inactive: 0.014,inactive: -0.038,inactive: 0.001,inactive: 0.057,inactive: -0.048,inactive: -0.029,inactive: 0.029,inactive: 0.001,inactive: -0.009,inactive: -0.025,active: -0.471,inactive: 0.004,inactive: -0.018,inactive: 0.007
WDR74 (UniProt Q6RFH5),inactive: 0.037,inactive: -0.005,inactive: 0.004,inactive: 0.045,inactive: -0.045,inactive: -0.03,inactive: 0.036,inactive: 0.036,inactive: -0.057,inactive: 0.016,inactive: -0.002,inactive: -0.085,inactive: 0.001,inactive: -0.028,inactive: -0.002
WRNIP1 (UniProt Q96S55),inactive: -0.008,inactive: 0.002,inactive: -0.018,inactive: -0.05,inactive: 0.066,inactive: -0.035,inactive: -0.02,inactive: 0.053,inactive: -0.008,inactive: -0.001,inactive: -0.011,active: -0.521,inactive: 0,inactive: -0.046,inactive: -0.02
VPS26C (UniProt O14972),inactive: -0.043,inactive: -0.015,inactive: -0.117,inactive: 0.016,inactive: 0.096,inactive: -0.12,inactive: 0.08,inactive: 0.037,inactive: 0.019,inactive: -0.019,inactive: 0.093,inactive: -0.099,inactive: 0.03,inactive: 0.011,inactive: -0.048
WDR7 (UniProt Q9Y4E6),inactive: 0.001,inactive: -0.018,inactive: -0.088,inactive: -0.011,inactive: 0.003,inactive: -0.016,inactive: -0.032,inactive: 0.014,inactive: 0.007,inactive: -0.03,inactive: -0.01,active: -0.236,inactive: 0.032,inactive: 0.01,inactive: -0.017
VRK3 (UniProt Q8IV63),inactive: 0.035,inactive: 0.028,inactive: 0.044,inactive: -0.001,inactive: 0.011,inactive: -0.011,inactive: 0.053,inactive: 0.031,inactive: -0.001,inactive: 0.032,inactive: 0.047,inactive: -0.075,inactive: 0.002,inactive: -0.027,inactive: -0.077
WARS (UniProt P23381),inactive: 0.012,inactive: -0.013,inactive: 0.044,inactive: 0.016,inactive: -0.03,inactive: 0.029,inactive: 0.054,inactive: -0.003,inactive: -0.043,inactive: 0.026,inactive: 0.004,inactive: 0.141,inactive: -0.023,inactive: 0.058,inactive: 0.014
WASF2 (UniProt Q9Y6W5),inactive: -0.024,inactive: 0.046,inactive: -0.019,inactive: 0.029,inactive: 0.028,inactive: 0.044,inactive: 0.007,inactive: 0.005,inactive: 0.012,inactive: 0.039,inactive: 0.002,inactive: 0.062,inactive: -0.013,inactive: -0.022,inactive: -0.004

# Another view of some results above:
Target | log2 fold change (nilotinib) | log2 fold change [1] | log2 fold change (dasatinib) | log2 fold change [2] | log2 fold change [3] | log2 fold change (quisinostat) | log2 fold change (tipifarnib) | log2 fold change [4] | log2 fold change [5] | log2 fold change [6] | log2 fold change [7] | log2 fold change (vorinostat) | log2 fold change (silmitasertib) | log2 fold change [8] | log2 fold change (entospletinib)
VPS41 (UniProt P49754) | inactive: 0.034 | inactive: 0.014 | inactive: -0.038 | inactive: 0.001 | inactive: 0.057 | inactive: -0.048 | inactive: -0.029 | inactive: 0.029 | inactive: 0.001 | inactive: -0.009 | inactive: -0.025 | active: -0.471 | inactive: 0.004 | inactive: -0.018 | inactive: 0.007
WDR74 (UniProt Q6RFH5) | inactive: 0.037 | inactive: -0.005 | inactive: 0.004 | inactive: 0.045 | inactive: -0.045 | inactive: -0.03 | inactive: 0.036 | inactive: 0.036 | inactive: -0.057 | inactive: 0.016 | inactive: -0.002 | inactive: -0.085 | inactive: 0.001 | inactive: -0.028 | inactive: -0.002
WRNIP1 (UniProt Q96S55) | inactive: -0.008 | inactive: 0.002 | inactive: -0.018 | inactive: -0.05 | inactive: 0.066 | inactive: -0.035 | inactive: -0.02 | inactive: 0.053 | inactive: -0.008 | inactive: -0.001 | inactive: -0.011 | active: -0.521 | inactive: 0 | inactive: -0.046 | inactive: -0.02
VPS26C (UniProt O14972) | inactive: -0.043 | inactive: -0.015 | inactive: -0.117 | inactive: 0.016 | inactive: 0.096 | inactive: -0.12 | inactive: 0.08 | inactive: 0.037 | inactive: 0.019 | inactive: -0.019 | inactive: 0.093 | inactive: -0.099 | inactive: 0.03 | inactive: 0.011 | inactive: -0.048
WDR7 (UniProt Q9Y4E6) | inactive: 0.001 | inactive: -0.018 | inactive: -0.088 | inactive: -0.011 | inactive: 0.003 | inactive: -0.016 | inactive: -0.032 | inactive: 0.014 | inactive: 0.007 | inactive: -0.03 | inactive: -0.01 | active: -0.236 | inactive: 0.032 | inactive: 0.01 | inactive: -0.017
VRK3 (UniProt Q8IV63) | inactive: 0.035 | inactive: 0.028 | inactive: 0.044 | inactive: -0.001 | inactive: 0.011 | inactive: -0.011 | inactive: 0.053 | inactive: 0.031 | inactive: -0.001 | inactive: 0.032 | inactive: 0.047 | inactive: -0.075 | inactive: 0.002 | inactive: -0.027 | inactive: -0.077
